Experimental data from patent publication US20240382656A1, “Drug Coatings for Medical Devices” (Bard Peripheral Vascular, Inc., priority 2021, published 2024).

Assay: Solubility of sirolimus in the coating solvent cyclohexane (slurry preparation, Example 1)
Type: physicochemical
Details: cyclohexane with dissolved petroleum jelly; 25 mg ground sirolimus (<40 μm) in 5 ml
Experimental: 75 mg of petroleum jelly was dissolved in 5 ml of cyclohexane. 25 mg of sirolimus that was ground to the selected size range of <40 μm), and then added to the solution. […] The ratio of drug to petroleum jelly was 1:3 and the coating solution concentration is 5 mg/ml.

CO[C@H]1C[C@@H]2CC[C@@H](C)[C@@](O)(O2)C(=O)C(=O)N2CCCC[C@H]2C(=O)O[C@H]([C@H](C)C[C@@H]2CC[C@@H](O)[C@H](OC)C2)CC(=O)[C@H](C)/C=C(\C)[C@@H](O)[C@@H](OC)C(=O)[C@H](C)C[C@H](C)/C=C/C=C/C=C/1C [Sirolimus, sirolimus]
solubility in cyclohexane: not soluble
